# Source: the supplement of paper PMC8728848
# The list shows a part of the results.
# Tests used:
# Assay in all cases: glycan array binding signal (z-score within array); higher = stronger binding
# Settings in all cases: glycan notation: IUPAC condensed, linker removed
# [1] = target: GalNAc(b1-4)GlcNAc(b1-2)Man
# In short: (§1)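 Columns mapping to the same glycan were averaged after glycan names were converted to IUPAC-condensed notation. The data come from 3228 arrays in the Consortium for Functional Glycomics database, limited to those with an available protein sequence. Binding is reported as a within-array Z-score averaged across arrays of one protein sequence and across linkers.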
# [2] = target: GalNAc(b1-4)GlcNAc(b1-2)Man(a1-3)[GalNAc(b1-4)GlcNAc(b1-2)Man(a1-6)]Man(b1-4)GlcNAc(b1-4)GlcNAc
# In short: as §1
# [3] = target: GalNAc(b1-4)GlcNAc(b1-3)GalNAc(b1-4)GlcNAc
# In short: as §1
# [4] = target: GalNAc(b1-4)GlcNAc6S
# In short: as §1
# [5] = target: GalNAc(b1-6)GalNAc
# In short: as §1
# [6] = target: GalNAc3S(b1-4)GlcNAc
# In short: as §1
# [7] = target: GalNAc3S(b1-4)GlcNAc3S
# In short: as §1
# [8] = target: GalNAc3S(b1-4)[Fuc(a1-3)]GlcNAc
# In short: as §1
# [9] = target: GalNAc4S6S(b1-4)GlcNAc
# In short: as §1
# [10] = target: GalNAc6S(b1-4)GlcNAc
# In short: as §1
# [11] = target: Glc(a1-4)Glc
# In short: as §1
# [12] = target: Glc(a1-4)Glc(a1-4)Glc(a1-4)Glc
# In short: as §1
# [13] = target: Glc(a1-6)Glc(a1-6)Glc
# In short: as §1
# [14] = target: Glc(a1-6)Glc(a1-6)Glc(a1-6)Glc
# In short: as §1
# [15] = target: Glc(b1-4)Glc
# In short: as §1
# [16] = target: Glc(b1-6)Glc
# In short: as §1
# [17] = target: GlcA(b1-3)Gal
# In short: as §1
# [18] = target: GlcA(b1-3)GlcNAc
# In short: as §1
# [19] = target: GlcA(b1-6)Gal
# In short: as §1
# [20] = target: GlcA3S(b1-3)Gal(b1-4)GlcNAc(b1-2)Man
# In short: as §1
# [21] = target: GlcA3S(b1-3)Gal(b1-4)GlcNAc(b1-3)Gal(b1-4)Glc
# In short: as §1
# [22] = target: GlcNAc(a1-3)Gal(b1-4)GlcNAc
# In short: as §1
# [23] = target: GlcNAc(a1-4)Gal(b1-3)GlcNAc
# In short: as §1
# [24] = target: GlcNAc(a1-4)Gal(b1-4)GalNAc
# In short: as §1
# [25] = target: GlcNAc(a1-4)Gal(b1-4)GlcNAc
# In short: as §1
# [26] = target: GlcNAc(a1-4)Gal(b1-4)GlcNAc(b1-3)Gal(b1-4)Glc
# In short: as §1
# [27] = target: GlcNAc(a1-4)Gal(b1-4)GlcNAc(b1-3)Gal(b1-4)GlcNAc
# In short: as §1
# [28] = target: GlcNAc(a1-4)Gal(b1-4)GlcNAc(b1-3)Gal(b1-4)GlcNAc(b1-3)Gal(b1-4)GlcNAc
# In short: as §1
# [29] = target: GlcNAc(a1-4)Gal(b1-4)GlcNAc(b1-3)Gal(b1-4)[Fuc(a1-3)]GlcNAc(b1-3)Gal(b1-4)[Fuc(a1-3)]GlcNAc
# In short: as §1
# [30] = target: GlcNAc(a1-6)Gal(b1-4)GlcNAc
# In short: as §1
# [31] = target: GlcNAc(b1-2)Gal(b1-3)GalNAc
# In short: as §1
# [32] = target: GlcNAc(b1-2)Man(a1-3)[GlcNAc(b1-2)Man(a1-6)]Man(b1-4)GlcNAc(b1-4)GlcNAc
# In short: as §1
# [33] = target: GlcNAc(b1-2)Man(a1-3)[GlcNAc(b1-2)Man(a1-6)]Man(b1-4)GlcNAc(b1-4)[Fuc(a1-6)]GlcNAc
# In short: as §1
# [34] = target: GlcNAc(b1-2)Man(a1-3)[GlcNAc(b1-4)][GlcNAc(b1-2)Man(a1-6)]Man(b1-4)GlcNAc(b1-4)GlcNAc
# In short: as §1
# [35] = target: GlcNAc(b1-2)Man(a1-3)[GlcNAc(b1-4)][GlcNAc(b1-2)Man(a1-6)]Man(b1-4)GlcNAc(b1-4)[Fuc(a1-6)]GlcNAc
# In short: as §1
# [36] = target: GlcNAc(b1-2)[GlcNAc(b1-4)]Man(a1-3)[GlcNAc(b1-2)Man(a1-6)]Man(b1-4)GlcNAc(b1-4)GlcNAc
# In short: as §1
# [37] = target: GlcNAc(b1-2)[GlcNAc(b1-4)]Man(a1-3)[GlcNAc(b1-4)][GlcNAc(b1-2)Man(a1-6)]Man(b1-4)GlcNAc(b1-4)GlcNAc
# In short: as §1
binder,measurement,setting,value
PX9961Q-bfa-504-27-504 (Bacteroides fragilis) (protein) NDWLDRKPADGIPSEDAITNYNDALTARTGMYDGIQGNSNATSYYGARMFYYGDVRADDMQARTQGMRSSSCYEMLYTVDDAPNMWNIPYNVIRRANRLIEAINEKKVTDATEAQIGKIYSEALVVRALVHFDLVRIYGMPYTADNGASLGVPVIVKPLERNDLPSRNTVAEVYTQVITDLTDAINSGYLAKDQTPGYINEWAAKALLTRVYLTKGDNENALKVAEDIITNSPYKLWTNEEYVNAWYKSNGAHTNEMIFEVVNASNDDWTDRNGIAYLLNENGYADAIVTKSFMNMLSQDPKDVRIGMVLPAQYDKDLQEEYGDAKIFINKFPADKDDVGEMRLNNLPLLRLSEVYLSAAEAAAKLGGHQDKAAKYLNEIVQRANPEAKAISEADATVERIILERRKEMIGEGQRYFDALRNNETIVRYKDEGDKGYHYSLIKESQSFDRTYFRAILPIPVDETNVNPNLRAQQNPGY,glycan array binding signal (z-score),[1],-0.586
same,glycan array binding signal (z-score),[2],1.65
same,glycan array binding signal (z-score),[3],0.716
same,glycan array binding signal (z-score),[4],-1.03
same,glycan array binding signal (z-score),[5],0.407
same,glycan array binding signal (z-score),[6],-0.773
same,glycan array binding signal (z-score),[7],-0.067
same,glycan array binding signal (z-score),[8],-0.266
same,glycan array binding signal (z-score),[9],-0.043
same,glycan array binding signal (z-score),[10],-1.27
same,glycan array binding signal (z-score),[11],0.181
same,glycan array binding signal (z-score),[12],-0.549
same,glycan array binding signal (z-score),[13],-0.584
same,glycan array binding signal (z-score),[14],-0.611
same,glycan array binding signal (z-score),[15],-0.009
same,glycan array binding signal (z-score),[16],0.413
same,glycan array binding signal (z-score),[17],-0.821
same,glycan array binding signal (z-score),[18],-0.475
same,glycan array binding signal (z-score),[19],2.12
same,glycan array binding signal (z-score),[20],-0.231
same,glycan array binding signal (z-score),[21],-1.22
same,glycan array binding signal (z-score),[22],-0.591
same,glycan array binding signal (z-score),[23],-0.29
same,glycan array binding signal (z-score),[24],0.025
same,glycan array binding signal (z-score),[25],-0.144
same,glycan array binding signal (z-score),[26],-0.143
same,glycan array binding signal (z-score),[27],-0.925
same,glycan array binding signal (z-score),[28],-0.76
same,glycan array binding signal (z-score),[29],0.692
same,glycan array binding signal (z-score),[30],-0.266
same,glycan array binding signal (z-score),[31],-0.108
same,glycan array binding signal (z-score),[32],-0.408
same,glycan array binding signal (z-score),[33],0.213
same,glycan array binding signal (z-score),[34],-0.101
same,glycan array binding signal (z-score),[35],0.694
same,glycan array binding signal (z-score),[36],-0.957
same,glycan array binding signal (z-score),[37],-0.344

# A different layout for some results above:
binder | measurement | setting | value
PX9961Q-bfa-504-27-504 (Bacteroides fragilis) (protein) NDWLDRKPADGIPSEDAITNYNDALTARTGMYDGIQGNSNATSYYGARMFYYGDVRADDMQARTQGMRSSSCYEMLYTVDDAPNMWNIPYNVIRRANRLIEAINEKKVTDATEAQIGKIYSEALVVRALVHFDLVRIYGMPYTADNGASLGVPVIVKPLERNDLPSRNTVAEVYTQVITDLTDAINSGYLAKDQTPGYINEWAAKALLTRVYLTKGDNENALKVAEDIITNSPYKLWTNEEYVNAWYKSNGAHTNEMIFEVVNASNDDWTDRNGIAYLLNENGYADAIVTKSFMNMLSQDPKDVRIGMVLPAQYDKDLQEEYGDAKIFINKFPADKDDVGEMRLNNLPLLRLSEVYLSAAEAAAKLGGHQDKAAKYLNEIVQRANPEAKAISEADATVERIILERRKEMIGEGQRYFDALRNNETIVRYKDEGDKGYHYSLIKESQSFDRTYFRAILPIPVDETNVNPNLRAQQNPGY | glycan array binding signal (z-score) | [10] | -1.27
same | glycan array binding signal (z-score) | [11] | 0.181
